Data from the supplement of paper PMC4604168 (melanoma cell lines).
Some of the results follow. Repeats are few or missing, and single values can be far off.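 Imaging used 1,536-well plates; nuclei positive for cleaved PARP by antibody were divided by total DNA-stained nuclei to yield the apoptosis fraction. Doses for screening kept most cells viable, and cell lines differ markedly in resting and induced cleaved-PARP levels.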

Experiments:
Test in all cases: cleaved PARP positive nuclei fraction relative to DMSO control; melanoma cells; higher = more apoptosis
Conditions in all cases: library dose: low library concentration; 72 h
[1] = system: MZ2-MEL
[2] = system: MeWo
[3] = system: RPMI7951
[4] = system: RVH-421
[5] = system: SkMel28
[6] = system: SkMel2
[7] = system: SkMel30
[8] = system: SkMel5
[9] = system: UACC257
[10] = system: UACC62

SMILES	cleaved PARP positive nuclei fraction [1] [%]	cleaved PARP positive nuclei fraction [2] [%]	cleaved PARP positive nuclei fraction [3] [%]	cleaved PARP positive nuclei fraction [4] [%]	cleaved PARP positive nuclei fraction [5] [%]	cleaved PARP positive nuclei fraction [6] [%]	cleaved PARP positive nuclei fraction [7] [%]	cleaved PARP positive nuclei fraction [8] [%]	cleaved PARP positive nuclei fraction [9] [%]	cleaved PARP positive nuclei fraction [10] [%]
NC(=O)c1ccc(N(C(N)=O)c2c(F)cccc2F)nc1-c1ccc(F)cc1F + CN(C)S(=O)(=O)c1ccc2c(c1)/C(=C/c1cc3c([nH]1)CCCC3)C(=O)N2 [SU6656] (first compound 0.4 µM, partner dose 0.4 µM)	216	121	59.4	73.6	355	33.8	62.6	55.4	129	158
Cn1cnc2c(F)c(Nc3ccc(Br)cc3Cl)c(C(=O)NOCCO)cc21 [selumetinib] + Oc1nc(-c2ccc(C(F)(F)F)cc2)nc2c1CSCC2 [XAV939] (first compound 0.015 µM, partner dose 2 µM)	264	131	38	53.2	199	94.2	126	84.2	109	270
CCCCCCCCc1ccc(CCC(N)(CO)CO)cc1 [fingolimod] + O=C(O)C(=O)Nc1sc2c(c1C(=O)O)CCNC2 [TCS401] (first compound 2 µM, partner dose 1.66667 µM)	37.8	126	147	144	229	48.8	29.2	92.9	62.8	152
CS(=O)(=O)c1ccc(C(=O)Nc2ccc(Cl)c(-c3ccccn3)c2)c(Cl)c1 [vismodegib] + NC(=O)Nc1cc(-c2cccc(F)c2)sc1C(=O)N[C@H]1CCCNC1 [AZD7762] (first compound 1 µM, partner dose 0.02 µM)	68	175	174	72.4	75.2	68.4	67.8	43.8	47	127
C[C@@H](N)c1ccc(C(=O)Nc2ccnc3[nH]ccc23)cc1 + O=C1NC(=O)/C(=C/c2ccc(-c3ccc(F)cc3O)o2)S1 [AS252424] (first compound 0.4 µM, partner dose 1 µM)	375	140	344	59.5	267	132	49.2	167	208	348
COc1ccc(C2=N[C@@H](c3ccc(Cl)cc3)[C@@H](c3ccc(Cl)cc3)N2C(=O)N2CCNC(=O)C2)c(OC(C)C)c1 [Nutlin-3] + O=c1cc(-c2cccc3c2Sc2ccccc2S3)oc(N2CCOCC2)c1 [KU55933] (first compound 0.1 µM, partner dose 1 µM)	81.8	205	60.6	122	145	71.1	25	233	185	131
Cn1cnc2c(F)c(Nc3ccc(Br)cc3Cl)c(C(=O)NOCCO)cc21 [selumetinib] + CN(NC(=O)CC(=O)NN(C)C(=S)c1ccccc1)C(=S)c1ccccc1 [STA4783] (first compound 0.015 µM, partner dose 0.006 µM)	472	168	51	37.6	87.6	122	118	90.5	159	124
Cn1cnc2c(F)c(Nc3ccc(Br)cc3Cl)c(C(=O)NOCCO)cc21 [selumetinib] + COc1cc2c(Oc3ccc4[nH]c(C)cc4c3F)ncnc2cc1OCCCN1CCCC1 [cediranib] (first compound 0.015 µM, partner dose 0.4 µM)	146	103	94.9	416	123	136	79	61.4	56	126
CCN(CC)CCNC(=O)c1c(C)[nH]c(/C=C2\C(=O)Nc3ccc(F)cc32)c1C [sunitinib] + Cc1ccc(NC(=O)c2cccc(N(C)C)c2)cc1NC(=O)c1ccc(O)cc1 [ZM336372] (first compound 0.4 µM, partner dose 2 µM)	69.3	105	122	69.7	74.4	86.4	84.9	122	51	74
Cn1cnc2c(F)c(Nc3ccc(Br)cc3Cl)c(C(=O)NOCCO)cc21 [selumetinib] + CCCCCCCCCCCC1=C(O)C(=O)C=C(O)C1=O [Embelin] (first compound 0.015 µM, partner dose 1.2 µM)	182	92.2	127	54.5	271	125	192	58.9	54.8	106
CCN(CC)CCNC(=O)c1c(C)[nH]c(/C=C2\C(=O)Nc3ccc(F)cc32)c1C [sunitinib] + O=C(CCCCCCC(=O)Nc1ccccc1)NO [vorinostat] (first compound 0.4 µM, partner dose 0.08 µM)	69.5	112	81.2	69.9	65.1	51.6	83.8	137	248	86.4
CCN(CC)CCNC(=O)c1c(C)[nH]c(/C=C2\C(=O)Nc3ccc(F)cc32)c1C [sunitinib] + CCN(CC)CCCCNc1ncc2cc(-c3cc(OC)cc(OC)c3)c(NC(=O)NC(C)(C)C)nc2n1 [PD173074] (first compound 0.4 µM, partner dose 0.1 µM)	99	126	42	205	177	148	132	65.1	134	272
Cn1sc(=O)n(Cc2ccccc2)c1=O + Cn1cncc1[C@@](N)(c1ccc(Cl)cc1)c1ccc2c(c1)c(-c1cccc(Cl)c1)cc(=O)n2C [tipifarnib] (first compound 0.4 µM, partner dose 0.01 µM)	76.6	94.1	109	148	63	191	68.3	33.9	136	60.6
CC1(C)CCC(c2ccc(Cl)cc2)=C(CN2CCN(c3ccc(C(=O)NS(=O)(=O)c4ccc(N[C@H](CCN5CCOCC5)CSc5ccccc5)c(S(=O)(=O)C(F)(F)F)c4)cc3)CC2)C1 + Oc1cc(-c2nc(-c3ccccc3)[nH]c2-c2ccncc2)ccc1Cl [L779450] (first compound 0.4 µM, partner dose 0.2 µM)	304	213	251	405	348	157	96.9	126	160	222
NC(=O)c1ccc(N(C(N)=O)c2c(F)cccc2F)nc1-c1ccc(F)cc1F + COc1cc(N2CCC(N3CCN(C)CC3)CC2)ccc1Nc1ncc(Cl)c(Nc2ccccc2S(=O)(=O)C(C)C)n1 [NVP-TAE684] (first compound 0.4 µM, partner dose 0.08 µM)	152	45.3	103	85	160	109	64.3	178	248	64.8

In another format: results already given.
SMILES | cleaved PARP positive nuclei fraction [1] [%] | cleaved PARP positive nuclei fraction [2] [%] | cleaved PARP positive nuclei fraction [3] [%] | cleaved PARP positive nuclei fraction [4] [%] | cleaved PARP positive nuclei fraction [5] [%] | cleaved PARP positive nuclei fraction [6] [%] | cleaved PARP positive nuclei fraction [7] [%] | cleaved PARP positive nuclei fraction [8] [%] | cleaved PARP positive nuclei fraction [9] [%] | cleaved PARP positive nuclei fraction [10] [%]
C[C@@H](N)c1ccc(C(=O)Nc2ccnc3[nH]ccc23)cc1 + O=C1NC(=O)/C(=C/c2ccc(-c3ccc(F)cc3O)o2)S1 [AS252424] (first compound 0.4 µM, partner dose 1 µM) | 375 | 140 | 344 | 59.5 | 267 | 132 | 49.2 | 167 | 208 | 348
Cn1cnc2c(F)c(Nc3ccc(Br)cc3Cl)c(C(=O)NOCCO)cc21 [selumetinib] + COc1cc2c(Oc3ccc4[nH]c(C)cc4c3F)ncnc2cc1OCCCN1CCCC1 [cediranib] (first compound 0.015 µM, partner dose 0.4 µM) | 146 | 103 | 94.9 | 416 | 123 | 136 | 79 | 61.4 | 56 | 126
